## Primary screen of a compound library

By UniProt entry, the sequences of proteins in these tests, tags left out. Residues count along the entry.
UniProt Q4DA54, 1-478: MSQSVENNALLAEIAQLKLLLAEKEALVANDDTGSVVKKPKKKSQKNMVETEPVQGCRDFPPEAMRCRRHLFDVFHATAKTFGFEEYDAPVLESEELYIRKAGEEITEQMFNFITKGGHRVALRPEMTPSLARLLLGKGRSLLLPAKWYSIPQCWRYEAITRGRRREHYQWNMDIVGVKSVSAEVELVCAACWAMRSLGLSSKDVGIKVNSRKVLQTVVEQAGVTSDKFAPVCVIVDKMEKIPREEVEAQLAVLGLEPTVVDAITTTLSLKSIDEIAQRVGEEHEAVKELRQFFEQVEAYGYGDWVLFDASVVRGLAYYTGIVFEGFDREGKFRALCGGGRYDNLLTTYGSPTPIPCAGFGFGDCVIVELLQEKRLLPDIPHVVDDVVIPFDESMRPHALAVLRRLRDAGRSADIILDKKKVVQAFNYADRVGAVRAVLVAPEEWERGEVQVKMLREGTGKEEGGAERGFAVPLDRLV
UniProt P9WNZ1, whole entry: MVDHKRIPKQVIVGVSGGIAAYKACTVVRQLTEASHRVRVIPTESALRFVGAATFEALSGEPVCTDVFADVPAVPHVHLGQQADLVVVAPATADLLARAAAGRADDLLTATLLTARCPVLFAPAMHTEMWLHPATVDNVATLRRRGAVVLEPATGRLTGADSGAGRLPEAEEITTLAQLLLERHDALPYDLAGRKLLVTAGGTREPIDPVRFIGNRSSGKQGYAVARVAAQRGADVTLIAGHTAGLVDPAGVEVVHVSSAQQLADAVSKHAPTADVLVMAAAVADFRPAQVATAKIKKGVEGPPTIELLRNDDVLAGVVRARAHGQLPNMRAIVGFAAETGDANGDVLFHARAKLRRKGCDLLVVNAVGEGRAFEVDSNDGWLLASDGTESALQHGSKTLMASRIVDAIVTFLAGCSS
UniProt A4I591, 1-473: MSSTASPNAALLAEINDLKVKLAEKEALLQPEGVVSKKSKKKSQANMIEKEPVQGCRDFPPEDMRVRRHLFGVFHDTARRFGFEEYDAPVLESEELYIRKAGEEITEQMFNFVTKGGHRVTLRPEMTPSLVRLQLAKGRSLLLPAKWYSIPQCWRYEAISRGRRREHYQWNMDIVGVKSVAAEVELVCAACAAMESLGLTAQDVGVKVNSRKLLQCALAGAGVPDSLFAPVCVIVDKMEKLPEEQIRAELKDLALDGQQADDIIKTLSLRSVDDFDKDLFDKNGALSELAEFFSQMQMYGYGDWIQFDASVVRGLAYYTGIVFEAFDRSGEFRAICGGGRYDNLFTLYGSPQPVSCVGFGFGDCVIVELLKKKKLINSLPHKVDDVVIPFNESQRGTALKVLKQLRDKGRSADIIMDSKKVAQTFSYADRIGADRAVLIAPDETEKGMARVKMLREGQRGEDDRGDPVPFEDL

Source: ChEMBL document CHEMBL3988442, “University of Dundee, Small-Polar-MMV Screening Library” (2021).

A: 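Histidine-tRNA ligase, Trypanosoma cruzi CL Brener (UniProt Q4DA54). Enzyme assay of histidyl-tRNA synthetase; the read-out is not stated. Concentration: 30 µM. The record gives no direction; compounds that gave an IC50 in retests scored well above the rest, so higher reads as stronger inhibition. Of about 69,000 compounds tested this way, about 31 (0.045%) reached 50% or more in at least one test.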
B: 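Enzyme assay of CoaBC with a phosphate dye (Biomol Green) read at 650 nm. Target: Coenzyme A biosynthesis protein CoaBC, Mycobacterium tuberculosis (UniProt P9WNZ1). Concentration: 30 µM. Higher reads as stronger inhibition, judged from the few compounds that gave an IC50. Most strong results did not repeat in a second test. Size under these conditions: about 67,000 compounds, about 40 of them at 50% or above in at least one test.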
C: 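Histidine-tRNA ligase, Leishmania infantum (UniProt A4I591). Enzyme assay of histidyl-tRNA synthetase; the read-out is not stated. Tested at 30 µM. Higher reads as stronger inhibition (inferred: compounds with an IC50 in retests scored well above the rest). The assay is labelled LdHisRS but filed under L. infantum. Of about 69,000 compounds tested this way, about 410 (0.6%) reached 50% or more in at least one test.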

Values are the deposited “Percent Effect”, in %. How 0% and 100% were set is not recorded. Most values in the screen are low, and negative values occur. This is an unselected part of the compounds tested. A dash means the value is not listed here; it may have been measured.

| Compound | A | B | C |
|---|---|---|---|
| `Cc1ccc(-c2cc(C(=O)NCCCc3csc(N)n3)[nH]n2)s1` | 17.49 | 0.7335 | 24.66 |
| `COC(=O)C1(NCc2nc(C)c(C)o2)CCC(C)CC1` (centres unmarked) | 6.952 | -6.957 | 3.665 |
| `CCn1nc(Br)nc1Sc1ccccc1NC(C)=O` | 8 | -2.503 | 8.219 |
| `CCc1nc(CC2CN(c3ncnc4sc(C)c(C)c34)CCO2)no1` (centres unmarked) | 2.424 | 6.386 | 5.195 |
| `CN1CCC(Cc2cnc(CNC(=O)Cc3cccc(F)c3)cn2)CC1` | 6.215 | -7.506 | 13.99 |
| `COc1ccc(N(c2ccc(C)cc2)c2ccc(C(=O)O)s2)cc1` | -1.156 | 3.558 | 18.56 |
| `CNC(=O)CCN(C)CC1(c2ccc(Br)cc2)CC1` | 2.632 | 4.74 | 16.07 |
| `Cc1cc(NCc2ccco2)nc2[nH]nc(N)c12` | 4.094 | 3.03 | 13.16 |
| `CCc1nc(C2CCCN2C(=O)c2cnc[nH]2)no1` (centres unmarked) | 3.955 | -0.7833 | 10.34 |
| `CNC(=O)CN1CCOCC12CCN(Cc1ccncc1)CC2` | -2.439 | 3.008 | 23.08 |
| `COCCc1noc(C2CCCN(c3ncnc4c3CCC4)C2)n1` (centres unmarked) | 8.173 | 8.015 | 17.07 |
| `CCc1cccc(CC)c1NC(=O)c1ccccc1N(C)S(C)(=O)=O` | 1.01 | 0 | -1.064 |
| `CC(NC(=O)C(C)(C)C#N)c1ccc(OCC2CC2)c(F)c1` (centres unmarked) | 8.333 | 5.684 | 9.434 |
| `CS(=O)(=O)N1CCO[C@@H]2CN(C(=O)C3CC(F)(F)C3)C[C@@H]2C1` | 11.73 | 3.03 | 15.38 |
| `Cc1n[nH]c(C)c1Sc1ccccc1NC(=O)N1CCN(C)CC1` | -16.05 | 3.194 | 17.2 |
| `CC(c1nc(C(C)(C)C)no1)N1CCN(c2ccc(C#N)cn2)CC1` (centres unmarked) | 11 | -4.875 | 17.81 |
| `N#Cc1cn(CCCN2CCc3ccccc3C2)c(=O)[nH]c1=O` | 9.74 | 2.297 | 11.29 |
| `Cc1cccc2c1cnn2CCCNC(=O)c1ccnn1C` | 0.8696 | 16.4 | 12.07 |
| `CCn1nccc1CN(C)C(=O)Cn1nc(C)c(C)c1C` | 1.916 | 5.981 | 1.439 |
| `CN(C(=O)OC(C)(C)C)C1CCN(C(=O)c2cc(Cl)c[nH]2)C1` (centres unmarked) | 2.674 | 7.391 | 0.5236 |
| `CCc1ncc2c(n1)CN(Cc1cn3ccsc3n1)CC2` | 12.5 | 4.263 | 26.88 |
| `Cc1ccc(-c2noc(CCC(=O)NC(C)Cn3cccn3)n2)cc1` (centres unmarked) | 5.263 | 2.428 | 10.71 |
| `Cc1cc2[nH]c(=O)oc2cc1S(=O)(=O)N1CCCC(N(C)C)CC1` (centres unmarked) | 0.4292 | -2.99 | 8.197 |
| `CCOc1ccccc1CNS(=O)(=O)c1ccc2c(c1)CCCC(=O)N2` | 3.96 | 0.1211 | 14.13 |
| `CNC(=O)CCCNCc1c(C)nn(CC(C)C)c1N(C)C` | 12.14 | 2.481 | 4.255 |
| `COCc1nc2cc(NCc3ncc[nH]3)ccc2o1` | 10.34 | 7.143 | 38.39 |
| `Cc1ncsc1CN1C[C@@H](OCC2CC2)[C@H]2OCCC[C@H]21` | 4.237 | 9.692 | 18.87 |
| `CC(=O)NCC(Cc1cccc(F)c1)n1cccc1` (centres unmarked) | 3.093 | -3.594 | 13.91 |
| `F[C@@H]1CN(CC2CC2)C[C@@H]1OCc1nc2ccc(C(F)(F)F)cc2[nH]1` | -1.493 | 7.269 | 13.51 |
| `CCCc1nc(N2CCCN3CCC[C@H]3C2)c2cnn(C)c2n1` | 7.035 | 9.208 | 7.447 |
| `CN(C)c1ncc(-c2cc(C(=O)N3CCCC3)n(CC3CC3)c2)cn1` | -1 | 1.449 | 9.589 |
| `Cc1oncc1C(=O)N[C@@H]1CN(c2ncccn2)C[C@@H]2CCCO[C@@H]21` | 9.804 | 3.583 | 20 |
| `Cc1cc(=O)n2nc(Oc3ccc(F)c(F)c3)sc2n1` | 10.45 | 8.156 | 25.3 |
| `COc1ccc(CN(C)C2CSCCSC2)c2cccnc12` | 5.263 | - | 17.5 |
| `CO[C@@H]1CCN(Cc2nccn2C)[C@H]1Cc1cccnc1` | 1.97 | -1.269 | -8.824 |
| `Cc1ccsc1CNC(=O)N1CCC(Cc2cnn(C)c2)C1` (centres unmarked) | 3.529 | 7.417 | 12.84 |
| `Cc1ccc(CN2CCC3(CC2)OC(C(=O)N(C)C)c2ccccc23)o1` (centres unmarked) | 0.5464 | 3.903 | 9.709 |
| `O=C(NCCn1ccc(-c2ccncc2)n1)c1ccncc1` | 0 | 4.478 | 9.615 |
| `CCc1ccc(CN2CCC3(CCCN(C(=O)c4cnccn4)C3)C2)o1` (centres unmarked) | 9.836 | 5.011 | 17.54 |
| `Cc1cccc(CN2CCOCC2c2[nH]ncc2C)n1` (centres unmarked) | 3.39 | 13.08 | 4.196 |

Once more, the final 2:

{"compound": "CCc1ccc(CN2CCC3(CCCN(C(=O)c4cnccn4)C3)C2)o1", "stereo": "centres unmarked", "A": 9.836, "B": 5.011, "C": 17.54}
{"compound": "Cc1cccc(CN2CCOCC2c2[nH]ncc2C)n1", "stereo": "centres unmarked", "A": 3.39, "B": 13.08, "C": 4.196}